Measurements: publication PMC12705695
No constants are given. Whether binding was seen depends on the method and setting. Binding seen in cells or lysates may run through a third protein. Some entries that bind do so weakly or less than the wild type.

Target: T1, Nucleosome assembly protein-like 1 (mouse (endogenous in adult mouse cardiomyocytes)) (UniProt P28656)
T1 sequence: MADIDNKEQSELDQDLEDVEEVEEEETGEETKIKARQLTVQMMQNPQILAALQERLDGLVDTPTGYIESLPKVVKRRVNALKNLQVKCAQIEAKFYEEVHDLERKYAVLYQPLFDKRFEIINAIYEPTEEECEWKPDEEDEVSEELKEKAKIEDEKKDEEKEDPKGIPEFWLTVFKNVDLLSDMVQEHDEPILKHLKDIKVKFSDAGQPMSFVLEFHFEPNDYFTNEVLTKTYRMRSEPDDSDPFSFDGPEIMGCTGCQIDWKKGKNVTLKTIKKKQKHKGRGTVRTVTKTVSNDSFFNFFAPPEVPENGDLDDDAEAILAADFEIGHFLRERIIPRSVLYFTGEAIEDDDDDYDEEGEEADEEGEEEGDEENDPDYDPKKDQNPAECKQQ
Assay: co-IP; endogenous proteins; total protein from cultured cardiomyocytes (normoxia or hypoxia/normoxia, treated with rbWnt2 or PBS); 1000 ug total protein with the IP antibody or rabbit IgG at 4 °C overnight, Protein A/G PLUS-Agarose 4 h at 4 °C, washed with PBS 3 times, western blot

binding: binds
B1: Trim11 (enzyme, UniProt Q99PQ2 1-467)
chain: MAAPDLSTNLQEEATCAICLDYFTDPVMTDCGHNFCRECIRRCWGQPEGPYACPECRELSAQRNLRPNRPLAKMAEMARRLHPPSPVPQGVCAAHREPLTTFCGDDLSLLCPICERSEHWTHRVRPLQEAADDLKGRLEKSLEHLRKQMEDAMLFQAQAEETCALWQKMVESQRQNVLGEFERLRRLLAEEEQQLLQKLEEEELEVLPRLREGAARLGQQSTQLAALISELESRCQLPALGLLQDIKDALCRVQDVKLQPPAVVPMELRTVCRVPGLVETLRRFRGDITLDPDTANPELVLSEDRRSVQRGEQRQALPDNPERFDPGPCVLGQERITSGRHYWEVEVGDQTSWALGVCKETANRKEKGELSAGNGFWILVFLGSFYNSNEPAFSPLRDPPKRVGIFLDYEAGHLSFYSATDGSLLFIFPETLFSGTLRPLFSPLSSSPTPMTICRLIGVSGDTLGPQ
